Laboratory results reported in the supplement of paper PMC6411743.
± gives the standard deviation of the averaged measurements. This is a selection; strong and weak results do not stand in their true shares. Small differences around the control level are noise.

By UniProt entry, the sequences of proteins in these tests, tags left out. Where a name states a change or a piece, a line headed by the entry shows the natural chain unless it says otherwise.
UniProt Q92918, whole entry, looked up: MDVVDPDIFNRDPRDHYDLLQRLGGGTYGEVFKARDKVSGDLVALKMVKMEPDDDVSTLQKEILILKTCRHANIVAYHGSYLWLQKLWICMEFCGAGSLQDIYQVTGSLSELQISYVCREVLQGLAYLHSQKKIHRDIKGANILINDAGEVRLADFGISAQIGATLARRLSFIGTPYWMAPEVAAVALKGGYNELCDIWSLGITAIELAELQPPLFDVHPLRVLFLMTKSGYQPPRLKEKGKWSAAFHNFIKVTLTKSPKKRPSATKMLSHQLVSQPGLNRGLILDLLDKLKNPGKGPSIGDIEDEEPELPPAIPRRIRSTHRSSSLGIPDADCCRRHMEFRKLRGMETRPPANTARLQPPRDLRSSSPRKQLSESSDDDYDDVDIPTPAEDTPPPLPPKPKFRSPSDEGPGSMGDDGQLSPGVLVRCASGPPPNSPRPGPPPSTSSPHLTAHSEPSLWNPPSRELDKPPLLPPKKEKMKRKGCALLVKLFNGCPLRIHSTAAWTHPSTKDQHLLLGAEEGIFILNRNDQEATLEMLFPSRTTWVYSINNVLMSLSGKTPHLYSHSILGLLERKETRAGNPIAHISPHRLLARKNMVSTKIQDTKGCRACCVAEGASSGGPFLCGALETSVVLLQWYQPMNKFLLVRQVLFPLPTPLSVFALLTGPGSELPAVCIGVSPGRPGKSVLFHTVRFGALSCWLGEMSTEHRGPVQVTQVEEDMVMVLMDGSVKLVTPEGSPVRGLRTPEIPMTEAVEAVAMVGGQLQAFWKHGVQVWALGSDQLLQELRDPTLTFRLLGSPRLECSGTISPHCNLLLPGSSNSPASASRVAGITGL
UniProt Q96CD2: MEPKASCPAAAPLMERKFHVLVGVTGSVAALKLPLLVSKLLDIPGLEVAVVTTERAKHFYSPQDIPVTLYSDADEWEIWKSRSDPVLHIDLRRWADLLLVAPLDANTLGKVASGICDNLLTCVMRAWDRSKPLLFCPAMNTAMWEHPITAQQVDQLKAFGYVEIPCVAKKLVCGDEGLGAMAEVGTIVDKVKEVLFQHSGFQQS
UniProt P12829: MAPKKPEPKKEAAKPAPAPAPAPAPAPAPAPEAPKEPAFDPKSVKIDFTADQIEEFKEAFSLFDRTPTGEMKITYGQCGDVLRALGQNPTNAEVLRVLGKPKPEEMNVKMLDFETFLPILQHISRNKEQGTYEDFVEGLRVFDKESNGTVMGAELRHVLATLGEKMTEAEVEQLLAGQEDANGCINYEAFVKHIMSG
UniProt Q96AX1: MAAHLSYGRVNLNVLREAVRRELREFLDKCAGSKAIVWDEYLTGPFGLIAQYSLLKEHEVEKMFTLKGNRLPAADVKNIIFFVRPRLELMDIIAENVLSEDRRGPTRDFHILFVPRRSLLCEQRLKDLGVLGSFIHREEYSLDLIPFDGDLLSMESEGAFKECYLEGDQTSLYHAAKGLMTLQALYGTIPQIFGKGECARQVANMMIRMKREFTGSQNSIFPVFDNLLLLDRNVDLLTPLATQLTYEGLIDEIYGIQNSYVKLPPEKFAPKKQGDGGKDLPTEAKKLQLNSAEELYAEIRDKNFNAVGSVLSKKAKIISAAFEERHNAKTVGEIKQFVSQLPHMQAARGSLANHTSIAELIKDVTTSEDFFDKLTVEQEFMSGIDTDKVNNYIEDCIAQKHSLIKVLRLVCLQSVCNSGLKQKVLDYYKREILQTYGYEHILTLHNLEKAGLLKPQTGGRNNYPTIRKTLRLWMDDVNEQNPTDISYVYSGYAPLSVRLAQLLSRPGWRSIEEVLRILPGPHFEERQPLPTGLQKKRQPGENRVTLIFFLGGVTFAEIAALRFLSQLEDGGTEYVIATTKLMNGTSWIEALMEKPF
UniProt Q15782: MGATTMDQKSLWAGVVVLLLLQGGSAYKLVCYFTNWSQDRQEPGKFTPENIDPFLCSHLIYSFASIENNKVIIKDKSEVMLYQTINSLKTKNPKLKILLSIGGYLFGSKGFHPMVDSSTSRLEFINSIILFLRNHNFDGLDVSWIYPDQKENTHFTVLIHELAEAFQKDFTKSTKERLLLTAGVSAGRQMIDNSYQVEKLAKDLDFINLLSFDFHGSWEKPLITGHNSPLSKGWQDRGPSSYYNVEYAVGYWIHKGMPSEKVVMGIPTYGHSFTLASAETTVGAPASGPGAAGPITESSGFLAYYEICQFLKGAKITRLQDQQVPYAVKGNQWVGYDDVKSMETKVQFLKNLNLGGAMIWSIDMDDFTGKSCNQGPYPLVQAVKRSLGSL
UniProt O60499: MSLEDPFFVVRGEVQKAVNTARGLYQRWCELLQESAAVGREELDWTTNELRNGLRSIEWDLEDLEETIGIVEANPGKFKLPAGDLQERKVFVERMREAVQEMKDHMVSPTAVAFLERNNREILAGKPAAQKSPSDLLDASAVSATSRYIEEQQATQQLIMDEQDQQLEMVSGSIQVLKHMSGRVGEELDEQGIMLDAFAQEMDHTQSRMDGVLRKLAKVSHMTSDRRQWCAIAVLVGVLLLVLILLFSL
UniProt Q9UG56: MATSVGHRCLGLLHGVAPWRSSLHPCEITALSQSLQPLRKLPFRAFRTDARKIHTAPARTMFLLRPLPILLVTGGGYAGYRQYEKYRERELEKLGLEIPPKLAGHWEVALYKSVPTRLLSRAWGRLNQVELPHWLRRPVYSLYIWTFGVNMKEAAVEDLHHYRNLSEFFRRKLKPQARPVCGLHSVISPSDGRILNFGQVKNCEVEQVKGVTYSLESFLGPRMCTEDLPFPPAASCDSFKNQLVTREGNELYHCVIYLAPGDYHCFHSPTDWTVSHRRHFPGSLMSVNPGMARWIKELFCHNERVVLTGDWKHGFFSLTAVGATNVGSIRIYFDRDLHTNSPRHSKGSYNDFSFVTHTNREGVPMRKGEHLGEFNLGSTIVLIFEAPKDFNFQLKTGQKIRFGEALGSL
UniProt O15078: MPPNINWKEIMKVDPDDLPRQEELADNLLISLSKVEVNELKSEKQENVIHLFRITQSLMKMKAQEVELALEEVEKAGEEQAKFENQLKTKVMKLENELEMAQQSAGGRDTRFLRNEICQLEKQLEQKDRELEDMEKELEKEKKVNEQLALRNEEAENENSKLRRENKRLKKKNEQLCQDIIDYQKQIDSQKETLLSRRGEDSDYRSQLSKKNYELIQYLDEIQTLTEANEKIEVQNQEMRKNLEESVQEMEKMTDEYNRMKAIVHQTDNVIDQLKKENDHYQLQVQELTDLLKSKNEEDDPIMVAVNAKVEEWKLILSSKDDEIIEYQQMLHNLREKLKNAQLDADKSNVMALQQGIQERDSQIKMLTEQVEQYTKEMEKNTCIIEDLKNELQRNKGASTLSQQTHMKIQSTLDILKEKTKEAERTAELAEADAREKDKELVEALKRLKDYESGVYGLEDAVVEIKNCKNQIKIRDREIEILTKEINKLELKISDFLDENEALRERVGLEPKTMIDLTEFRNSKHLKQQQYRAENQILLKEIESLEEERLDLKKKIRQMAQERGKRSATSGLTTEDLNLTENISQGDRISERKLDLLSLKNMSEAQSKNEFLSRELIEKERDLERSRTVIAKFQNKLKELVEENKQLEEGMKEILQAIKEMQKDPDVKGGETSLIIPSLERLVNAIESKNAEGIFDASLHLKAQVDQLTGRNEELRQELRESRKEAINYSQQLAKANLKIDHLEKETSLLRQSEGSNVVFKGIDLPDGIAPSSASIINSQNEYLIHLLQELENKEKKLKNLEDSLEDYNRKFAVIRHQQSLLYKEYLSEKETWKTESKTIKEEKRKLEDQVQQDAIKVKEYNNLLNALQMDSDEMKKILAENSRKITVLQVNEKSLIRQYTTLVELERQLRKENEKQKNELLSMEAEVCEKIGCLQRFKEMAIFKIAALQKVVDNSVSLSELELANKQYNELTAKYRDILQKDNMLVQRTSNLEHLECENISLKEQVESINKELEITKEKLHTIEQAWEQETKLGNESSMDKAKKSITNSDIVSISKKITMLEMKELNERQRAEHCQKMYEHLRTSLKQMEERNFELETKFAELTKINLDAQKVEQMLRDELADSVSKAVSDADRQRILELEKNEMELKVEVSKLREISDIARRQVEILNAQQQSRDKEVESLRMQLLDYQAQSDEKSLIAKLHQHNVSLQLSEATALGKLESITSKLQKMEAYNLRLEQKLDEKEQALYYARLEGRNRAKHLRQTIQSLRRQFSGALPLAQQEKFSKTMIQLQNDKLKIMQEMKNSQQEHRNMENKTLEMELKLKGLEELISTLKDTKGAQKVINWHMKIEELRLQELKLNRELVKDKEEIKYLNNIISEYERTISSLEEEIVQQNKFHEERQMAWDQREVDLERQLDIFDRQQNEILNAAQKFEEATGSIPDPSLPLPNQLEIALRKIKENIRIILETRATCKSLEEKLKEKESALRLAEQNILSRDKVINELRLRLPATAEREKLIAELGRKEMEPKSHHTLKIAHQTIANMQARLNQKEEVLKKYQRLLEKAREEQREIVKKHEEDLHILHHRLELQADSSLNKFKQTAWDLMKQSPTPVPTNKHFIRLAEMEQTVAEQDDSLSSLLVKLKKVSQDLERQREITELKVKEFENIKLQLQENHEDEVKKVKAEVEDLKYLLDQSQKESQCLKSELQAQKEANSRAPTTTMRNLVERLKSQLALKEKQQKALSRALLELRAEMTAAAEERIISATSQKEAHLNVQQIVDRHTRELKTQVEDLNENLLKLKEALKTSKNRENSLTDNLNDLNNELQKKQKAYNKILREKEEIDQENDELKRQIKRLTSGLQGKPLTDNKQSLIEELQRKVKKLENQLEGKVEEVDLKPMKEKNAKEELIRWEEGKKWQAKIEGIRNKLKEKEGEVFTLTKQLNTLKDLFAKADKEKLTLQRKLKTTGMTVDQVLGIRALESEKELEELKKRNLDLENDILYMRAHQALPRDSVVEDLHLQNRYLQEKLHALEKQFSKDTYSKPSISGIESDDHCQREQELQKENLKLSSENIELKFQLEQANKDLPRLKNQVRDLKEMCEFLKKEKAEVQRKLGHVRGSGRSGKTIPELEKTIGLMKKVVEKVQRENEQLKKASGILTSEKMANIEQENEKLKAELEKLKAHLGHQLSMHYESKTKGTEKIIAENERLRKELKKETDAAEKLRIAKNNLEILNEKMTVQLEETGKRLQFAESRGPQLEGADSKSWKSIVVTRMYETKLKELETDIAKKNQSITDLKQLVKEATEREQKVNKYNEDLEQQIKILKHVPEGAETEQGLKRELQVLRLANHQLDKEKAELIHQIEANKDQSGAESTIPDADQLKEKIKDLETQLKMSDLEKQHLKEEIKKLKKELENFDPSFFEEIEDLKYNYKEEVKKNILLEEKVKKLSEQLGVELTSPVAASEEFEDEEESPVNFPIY
UniProt Q7Z4W1: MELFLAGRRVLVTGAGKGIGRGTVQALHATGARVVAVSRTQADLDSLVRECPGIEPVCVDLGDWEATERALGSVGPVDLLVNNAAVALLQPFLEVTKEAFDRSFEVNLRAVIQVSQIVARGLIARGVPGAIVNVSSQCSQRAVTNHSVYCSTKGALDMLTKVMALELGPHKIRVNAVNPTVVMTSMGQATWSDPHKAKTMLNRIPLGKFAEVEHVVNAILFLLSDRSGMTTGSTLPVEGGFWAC
UniProt Q9Y3E5: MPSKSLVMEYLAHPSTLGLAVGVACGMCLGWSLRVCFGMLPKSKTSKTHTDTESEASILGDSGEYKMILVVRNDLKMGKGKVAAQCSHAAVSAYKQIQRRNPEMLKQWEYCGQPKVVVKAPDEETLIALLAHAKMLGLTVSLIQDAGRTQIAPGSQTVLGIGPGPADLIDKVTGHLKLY
UniProt Q96K21: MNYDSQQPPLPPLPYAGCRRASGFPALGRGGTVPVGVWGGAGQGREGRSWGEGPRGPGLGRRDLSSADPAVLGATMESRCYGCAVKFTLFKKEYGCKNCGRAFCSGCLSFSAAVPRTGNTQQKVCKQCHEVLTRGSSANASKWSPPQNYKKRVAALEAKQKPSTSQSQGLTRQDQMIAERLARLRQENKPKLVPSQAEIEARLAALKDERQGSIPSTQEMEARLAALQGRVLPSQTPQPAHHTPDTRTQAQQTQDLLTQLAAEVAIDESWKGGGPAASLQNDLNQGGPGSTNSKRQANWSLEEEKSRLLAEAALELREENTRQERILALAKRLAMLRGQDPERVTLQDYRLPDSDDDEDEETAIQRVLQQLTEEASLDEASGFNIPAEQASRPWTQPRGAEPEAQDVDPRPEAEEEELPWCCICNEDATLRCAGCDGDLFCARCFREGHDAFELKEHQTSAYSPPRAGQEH
UniProt Q96B54: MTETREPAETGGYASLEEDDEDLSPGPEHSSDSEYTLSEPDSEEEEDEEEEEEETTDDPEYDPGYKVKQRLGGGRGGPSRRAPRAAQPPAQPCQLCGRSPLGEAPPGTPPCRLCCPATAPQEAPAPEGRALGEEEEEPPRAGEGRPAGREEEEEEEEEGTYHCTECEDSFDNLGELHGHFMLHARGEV

The targets below were run with Nc1ncnc2c1ncn2[C@@H]1O[C@H](COP(=O)(O)OP(=O)(O)OP(=O)(O)O)[C@@H](O)[C@H]1O [adenosine triphosphate] (assay: NP40-soluble protein abundance relative to vehicle (solubility fold change) (ratio); higher = more soluble protein in presence of ATP). Conditions: concentration: 0.1mM.
Procedure, shortened: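 Crude Jurkat lysate, prepared by Dounce homogenisation, was exposed to eight concentrations from 0.1 to 10 mM for 10 min at room temperature and then 3 min at 37 °C. Solubilisation used 0.8% NP40 with benzonase for 60 min at 4 °C, followed by ultracentrifugation and TMT labelling of the supernatant for LC-MS/MS. After vsn normalisation of intensities, each value is the fold change against the detergent-processed vehicle within each replicate, across three independent experiments.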
In the case of “H0Y659 and related entries (UniProt Q7Z6Z7)”, the NP40-soluble protein abundance is reported as 0.998 ± 0.034. “K7ER95 and related entries (UniProt Q92918)” showed an NP40-soluble protein abundance of 1.06 ± 0.029. For “H3BRQ0 and related entries (UniProt Q96CD2)”, the NP40-soluble protein abundance was 0.987 ± 0.072. In the case of “M0QY01 and related entries (UniProt Q9UBC2)”, the NP40-soluble protein abundance is reported as 0.958 ± 0.024. “H0YLM8 and related entries (UniProt Q8TDJ6)” showed an NP40-soluble protein abundance of 1.02 ± 0.049. For “H3BUJ7 and related entries (UniProt Q66K89)”, the NP40-soluble protein abundance was 1.04 ± 0.095. “K7EKG9 and related entries (UniProt Q14CW9)” gave an NP40-soluble protein abundance of 1.03 ± 0.051. Work on “I3L1K6 and related entries (UniProt P12829)” yielded an NP40-soluble protein abundance of 0.925 ± 0.17. “H3BMM5 and related entries (UniProt Q96AX1+H3BMM5)” gave an NP40-soluble protein abundance of 1.02 ± 0.037. “J3KNQ1 and related entries (UniProt Q6P2D0)” gave an NP40-soluble protein abundance of 1.01 ± 0.068. “J3QQK6 and related entries (UniProt P02686)” was tested, and the NP40-soluble protein abundance was 0.909 ± 0.089. In the case of “H0Y860 and related entries (UniProt Q9P246)”, the NP40-soluble protein abundance is reported as 1.07 ± 0.079. Work on “J3KNA0 and related entries (UniProt Q15070)” yielded an NP40-soluble protein abundance of 0.996 ± 0.039. Work on “H0YDM4 and related entries (UniProt Q86VS8)” yielded an NP40-soluble protein abundance of 0.924 ± 0.04. With “H0YE91 and related entries (UniProt Q15782)” the NP40-soluble protein abundance was 0.895 ± 0.067. In the case of H3BLZ8 (UniProt Q92841), the NP40-soluble protein abundance is reported as 1.01 ± 0.064. In the case of “K7EIY4 and related entries (UniProt O60499)”, the NP40-soluble protein abundance is reported as 0.981 ± 0.041. “H0Y7P7 and related entries (UniProt Q9UG56)” was tested, and the NP40-soluble protein abundance was 1.04 ± 0.055. “H7BYT1 and related entries (UniProt P48730)” showed an NP40-soluble protein abundance of 1.04 ± 0.093. Target “K7EP14 and related entries (UniProt P07992)” has an NP40-soluble protein abundance of 1 ± 0.02. Work on “J3KNF5 and related entries (UniProt O15078)” yielded an NP40-soluble protein abundance of 1.01 ± 0.013. “H0YEH1 and related entries (UniProt Q13492)” gave an NP40-soluble protein abundance of 0.967 ± 0.014. “H3BMQ0 and related entries (UniProt P49815)” was tested, and the NP40-soluble protein abundance was 1 ± 0.027. “J3KPD3 and related entries (UniProt Q9Y580)” showed an NP40-soluble protein abundance of 0.989 ± 0.027. “K7ELC7 and related entries (UniProt P61353)” gave an NP40-soluble protein abundance of 0.916 ± 0.042. “J3QSH4 and related entries (UniProt Q14119)” gave an NP40-soluble protein abundance of 0.996 ± 0.045. “J3QR07 and related entries (UniProt Q96MU7)” showed an NP40-soluble protein abundance of 1.003 ± 0.0087. Work on “J3KS22 and related entries (UniProt Q7Z4W1)” yielded an NP40-soluble protein abundance of 0.991 ± 0.053. “J3KQ48 and related entries (UniProt Q9Y3E5)” was tested, and the NP40-soluble protein abundance was 1.05 ± 0.0045. “H3BMM9 and related entries (UniProt Q15287)” gave an NP40-soluble protein abundance of 1.01 ± 0.17. “M0QYA8 and related entries (UniProt Q8IV63)” showed an NP40-soluble protein abundance of 1 ± 0.018. “J3KNP4 and related entries (UniProt Q9NPR2)” showed an NP40-soluble protein abundance of 0.967 ± 0.018. Work on “J3QQJ0 and related entries (UniProt Q9UHR5)” yielded an NP40-soluble protein abundance of 0.935 ± 0.02. “H0YEU4 and related entries (UniProt Q03164)” was tested, and the NP40-soluble protein abundance was 1.02 ± 0.023. For “J3KNV1 and related entries (UniProt O60281)”, the NP40-soluble protein abundance was 1.03 ± 0.048. “H3BRF9 and related entries (UniProt Q96K21)” showed an NP40-soluble protein abundance of 0.945 ± 0.018. With “M0QXZ5 and related entries (UniProt Q96B54)” the NP40-soluble protein abundance was 0.941 ± 0.042. “H7BZB3 and related entries (UniProt P27708)” showed an NP40-soluble protein abundance of 0.995 ± 0.047.
